Results taken from PubChem BioAssay AID1487 (National Center for Advancing Translational Sciences (NCATS), 2009).
This is one part of the list. These are further read-outs of the screen, such as a control signal, another cell line or another target. No call is given for them. The list favours compounds with an active or inconclusive main result. The note in brackets gives the kind of curve behind each potency; many fits are weak.

Test: qHTS Assay for Modulators of Lamin A Splicing
Conditions: HeLa LMNA splicing GFP/RFP minigene ratio, 48 h
How it was run: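 S3 HeLa cells stably expressing lamin A-EGFP splicing minigene plus DsRed2, 600 cells/well, 48 h compound exposure at 37C. Laser-scanning cytometry; analysed as GFP (500-530 nm)/RFP (575-640 nm) total intensity ratio; 0.5% DMSO vehicle.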

[1] = measured here: GFP splicing reporter channel
[2] = measured here: RFP viability control channel

Structure (SMILES)	AC50 [1]	AC50 [2]
O=[N+]([O-])c1nn(-c2ccc3c(c2)OCCO3)n(O)c1=NCc1ccc(F)cc1Cl	0.0631 µM [rising, full curve, poor fit]	–
N/C(=N\OC(=O)c1ccccc1Cl)c1ccncc1	2.51 µM [falling, single point]	35.5 µM [rising, single point]
CCOC(=O)C(=CNc1ccc(N2CCOCC2)cc1)C(=O)OCC	5.62 µM [falling, single point]	–
O=C(/C=C/c1cccs1)Nc1nc(-c2ccccc2)cs1	–	28.2 µM [rising, single point]
O=[N+]([O-])c1ccc(CSc2nc3ccccc3[nH]2)cc1	–	14.1 µM [rising, partial curve, poor fit]
CCN(C(=O)CSc1nc2ccccc2c(=O)n1CCOC)C1CCS(=O)(=O)C1 (stereo unspecified)	–	3.16 µM [rising, partial curve]
CCOC(=O)C1CCCN(Cc2nc(Cc3cccc(F)c3)no2)C1 (stereo unspecified)	–	6.31 µM [falling, partial curve, poor fit]
COC(=O)c1c(NC(=O)CSc2nncs2)sc2c1CCCCC2	–	14.1 µM [rising, partial curve]
COc1ccc(N2CCN(C(=O)CSc3nnc(NC(=O)C4CC4)s3)CC2)cc1	0.00316 µM [falling, full curve, poor fit]	–
Cc1ccccc1Nc1nc(N)c2ccccc2n1	0.02 µM [falling, full curve, poor fit]	–
COc1ccc(-c2ccc(CNCCCN3CCOCC3)o2)cc1Cl	3.98 µM [falling, full curve, poor fit]	3.16 µM [falling, single point]
O=C(CSc1nnnn1-c1ccccc1)CC(=O)Nc1ccc(Cl)cc1	11.2 µM [rising, partial curve]	11.2 µM [rising, partial curve]
C(=N\Nc1nc(Nc2ccccc2)nc(N2CCOCC2)n1)/c1c[nH]c2ccccc12	17.8 µM [falling, single point]	35.5 µM [falling, single point]
Cc1ccc(C)c(OCCn2c(=O)c3c(ncn3C3CCCC3)n(Cc3ccccc3)c2=O)c1	–	14.1 µM [rising, single point]
O=C(c1ccc([N+](=O)[O-])cc1)n1nc(-c2ccccc2)nc1NCc1ccccc1	–	20 µM [falling, partial curve, poor fit]
CC1(C)CC(NCc2ccncc2)CC(C)(C)N1	–	2 µM [rising, single point]
COc1ccccc1NS(=O)(=O)c1cccc(C(=O)N/N=C/c2cn(-c3ccccc3)nc2-c2ccccc2)c1	28.2 µM [rising, single point]	22.4 µM [rising, single point]
CCCCCCC(=O)N/N=C/c1ccc(Br)cc1	–	0.0141 µM [rising, full curve, poor fit]
COc1ccc(S(=O)(=O)N2CCC(O)(c3ccc(Cl)cc3)CC2)cc1	0.00501 µM [rising, full curve, poor fit]	22.4 µM [rising, partial curve]

Structure (SMILES)	AC50 [1]	AC50 [2]
CCCCOc1ccc(-c2ncc(C(=O)OCC)c(N)n2)cc1	–	31.6 µM [rising, single point]
COc1cccc(N2CCN(c3cnc4ccccc4n3)CC2)c1	6.31 µM [falling, partial curve]	–
COc1cccc(/C=C(\CC(=O)O)c2nc3ccccc3s2)c1	–	7.94 µM [falling, partial curve, poor fit]
CCOc1ccc(C(c2c(NC(=O)c3ccccc3)sc(C)c2C)N2CCN(C)CC2)cc1 (stereo unspecified)	35.5 µM [falling, single point]	–
CCC(=NCCc1c(C)[nH]c2ccc(C)cc12)C1=C(O)CC(c2ccccc2)CC1=O (stereo unspecified)	–	0.447 µM [rising, full curve]
CC/C(Cc1ccccc1)=N\NC(=O)c1cc([N+](=O)[O-])cc([N+](=O)[O-])c1	–	2.51 µM [falling, partial curve]
Cc1cc2ccccc2n1CCNC(=O)COc1ccc2ccccc2c1	31.6 µM [rising, single point]	35.5 µM [rising, single point]
CC1=CC(C)(C)Nc2cc(C)c(C)cc21	–	0.316 µM [falling, full curve, poor fit]
C/C(=N\Nc1nc(N)cc(Cl)n1)c1ccc(F)cc1	0.891 µM [falling, full curve, poor fit]	2.51 µM [falling, full curve, poor fit]
FC(F)(F)c1cnc(Oc2ccc(-c3nnco3)cc2)c(Cl)c1	–	5.62 µM [rising, single point]
COc1ccccc1NC(=S)N/N=C1\CC(C)(C)Oc2ccc(O)cc21	–	1.41 µM [falling, full curve, poor fit]
S=c1[nH]nc(CCSCc2ccccc2)n1-c1ccccc1	6.31 µM [rising, partial curve, poor fit]	0.316 µM [rising, full curve]
CCOC(=O)c1c(CSc2ccccc2)n(C)c2ccc(O)c(CN3CCOCC3)c12	10 µM [falling, partial curve]	–
COc1ccc([N+](=O)[O-])cc1N(CC(=O)NCCSc1ccc(C)cc1)S(C)(=O)=O	–	35.5 µM [falling, single point]
Nc1ccc(C(=O)OCc2nc3cc4ccccc4cc3[nH]2)cc1	10 µM [falling, partial curve]	11.2 µM [rising, partial curve]
CCc1ccc(OCCCC(=O)NCc2ccccc2)cc1	35.5 µM [rising, single point]	20 µM [rising, single point]
O=C(CSC1=NCCS1)Nc1nc2ccccc2s1	–	12.6 µM [rising, partial curve]
O=C(O)C1CCCCC1C(=O)Nc1ccc(-c2ccccc2)cc1 (stereo unspecified)	–	1 µM [falling, full curve]
C[N+]1(CC(=O)OCCCC2CCCCC2)CCCC1	0.01 µM [rising, full curve, poor fit]	–

Structure (SMILES)	AC50 [1]	AC50 [2]
O=C(N/N=C/C(Br)=C\c1ccccc1)c1ccc2nc[nH]c2c1	15.8 µM [falling, partial curve, poor fit]	–
CC(C)NC(=O)COc1ccc(/C=N/NS(=O)(=O)c2ccccc2)cc1	2.51 µM [falling, partial curve]	–
O=C1c2ccccc2NC(c2ccco2)N1NS(=O)(=O)c1ccccc1 (stereo unspecified)	0.794 µM [falling, full curve, poor fit]	0.794 µM [falling, full curve, poor fit]
CCC(=O)c1ccc(Oc2ccc(C(=O)c3ccc(C)cc3)cc2[N+](=O)[O-])cc1	–	3.55 µM [rising, partial curve, poor fit]
CCOC(=O)c1c(C)[nH]c(C(=O)OCC(=O)N2c3ccccc3CC2C)c1C (stereo unspecified)	–	22.4 µM [rising, partial curve]
CC1CCN(c2oc(-c3ccccc3Cl)nc2C#N)CC1	14.1 µM [rising, single point]	15.8 µM [rising, partial curve]
O=C(NC1CCCC1)c1ccc2c(=O)n(Cc3ccccc3)c(SCc3ccccc3F)nc2c1	0.224 µM [falling, full curve, poor fit]	–
COCCn1c(N)c(C#N)c2nc3ccccc3nc21	2.51 µM [falling, single point]	2.51 µM [falling, single point]
CCn1ncc(Br)c1C(=O)Nc1ccn(C23CC4CC(CC(C4)C2)C3)n1	–	22.4 µM [rising, single point]
CCN(CC)c1ccc(-c2nc3cnccc3n2C)cc1	11.2 µM [rising, single point]	11.2 µM [rising, single point]
CCOC(=O)c1c(NC(=O)c2ccc(C)cc2)sc2c1CC(C)(C)OC2	22.4 µM [rising, single point]	31.6 µM [rising, single point]
CN1CCN(CCC=C2c3ccccc3Sc3ccc(S(=O)(=O)N(C)C)cc32)CC1	–	0.398 µM [falling, single point]
O=C(c1ccccc1Br)N1CCCC(c2nc(-c3cccs3)no2)C1 (stereo unspecified)	–	17.8 µM [rising, single point]
Cc1cc(C)c2cc(CN(CC3CCCO3)C(=S)NCc3ccco3)c(=O)[nH]c2c1 (stereo unspecified)	6.31 µM [falling, full curve, poor fit]	–
O/N=C(\c1ccc(Cl)cc1Cl)c1ncc(C(F)(F)F)cc1Cl	–	31.6 µM [rising, single point]
COc1ccc(COc2ccsc2C(=O)Nc2ccc(Cl)c(Cl)c2)cc1	22.4 µM [falling, single point]	17.8 µM [falling, partial curve]
Cc1ccc(S(=O)(=O)NCCC(=O)OCC(=O)Nc2cccc(S(=O)(=O)NC3=NCCCCC3)c2)cc1	0.01 µM [rising, full curve, poor fit]	–
O=C(O)c1cc(S(=O)(=O)N2CCCCCC2)c(Cl)cc1Cl	14.1 µM [rising, partial curve]	3.98 µM [rising, partial curve]
Cc1cc2nc(SCC(=O)N(C)C)c3c(c2cc1C)CCCC3	14.1 µM [falling, partial curve, poor fit]	11.2 µM [falling, partial curve, poor fit]

Single entries from the list.
In AC50 [2], `O=[N+]([O-])c1ccc(CSc2nc3ccccc3[nH]2)cc1` is listed with 14.1 µM [rising, partial curve, poor fit]
In AC50 [2], `Nc1ccc(C(=O)OCc2nc3cc4ccccc4cc3[nH]2)cc1` is listed with 11.2 µM [rising, partial curve]
